Reference: PubChem BioAssay AID1508600 (Functional Genomics Laboratory (NCATS/FGL), 2020)
Out of some 53,000 sequences screened, about 3,700 (7%) were called active.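 How the source made its calls: active means gene knockdowns whose robust z-score for IL-1 alpha signal is at least 2 or at most -2, so actives lie on both sides; inactive means the rest.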 Some of the results follow.

assay: Components of the Cytosolic LPS Sensing Pathway: Gene Identification via Genome-wide siRNA Screen; details: RAW264.7 macrophages, IL-1a HTRF, actives lie on both sides, screened at 100 nM (by protocol), cells primed 5 h with Pam3CSK4 first;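 further: robust z of the log signal after scaling to non-targeting control siRNA wells of the plate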
In short: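 IL-1a HTRF of supernatants after 24 hour LipidA transfection of Pam3CSK4-primed (5 hours) RAW264.7 cells, 48h post-siRNA transfection (100 nM). Scores: percent of plate negative-control median, then log-based robust z-score.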

| Sequence | z-score |
| --- | --- |
| GCUCUUGAGCCUACAACUGTT against Pmfbp1 | inactive: -0.122 |
| GCAAUAGAUCUGGUCCUUUTT against Olfr552 | inactive: 0.334 |
| CGUGUAUCAUCUCAAGUGUTT against Lmo4 | inactive: 1.14 |
| GGAUGACUGUUAUUUUUGUTT against Sema4g | inactive: -0.0503 |
| GGAACAUGUAUCCCAAAGCTT against Cysrt1 | inactive: 0.666 |
| GGAGUAGAAGAAGAGGAGUTT against Mrpl50 | inactive: 0.946 |
| CGUACCUAAUCUGCCUAUCTT against Zic3 | inactive: 0.0287 |
| GGUUGCUUCAUUGAUGUAUTT against Olfr867 | inactive: -1.6 |
| GCCAGUACGAAGUGAUCUGTT against Ackr4 | active: 2.8 |
| GGGCAAGACUUAAUUUUGGTT against Dppa1 | inactive: -0.36 |
| GGAGGGAAGGCUGUGAAUATT against Syt7 | inactive: -0.344 |
| CCAUUGAAGCCGAAUCAGATT against Slfn3 | inactive: -0.0672 |
| GAACUCCCAACCCUGGCAATT against Klk1b5 | inactive: 0.347 |
| GGCUCAAAGCCAAUCUGAATT against Recql4 | active: 2.06 |
| CGUACCUUUUUUAUCCUAATT against 6030445D17Rik | inactive: -1.29 |
| GGAGGAGGACUUUGAUGACTT against Gon4l | inactive: -0.128 |
| GAGCUAUGUUCUUGGAUGATT against Vmn1r47 | inactive: -0.573 |
| GGAGAAGCUGAAAUUUCUGTT against Tesc | inactive: -0.0493 |
| CCCAUUUAAAUACAUACGATT against Ly9 | inactive: 0.956 |
| GGUUGUCGCCAGAAUCAAGTT against Slc9a3r2 | active: 2.28 |
| GGAGCUAAAAGAGAUCAACTT against Bicd2 | inactive: 1.33 |
| GCUACGGAACAAUCACAGCTT against Kdm5d | inactive: 1.73 |

| Sequence | z-score |
| --- | --- |
| CUGUUACCUAUCCCUCAUCTT against Sstr3 | inactive: -0.663 |
| GGUUUAGAUGAUUUCUUCCTT against Ap3m1 | inactive: 0.861 |
| GGCACUCCAUGGAAAUUAGTT against Sh3rf3 | inactive: -0.994 |
| GCUAGCAGAGAUACAAUGUTT against Rasal3 | active: 3 |
| GGAAGUAAUUCACAACCAGTT against Pfdn1 | inactive: -0.0518 |
| CCAUGUUCAUCUUCUUGGGTT against Olfr76 | inactive: -1.04 |
| CGUCAAUCACACAGAUAUUTT against Cd28 | inactive: -0.34 |
| GGACCCAUUGGUCAUCAUATT against Tent5b | inactive: 0.18 |
| GGAAGAUGUUUAUUCAAGUTT against Abhd10 | inactive: -0.113 |
| GGAAGAGAAAGAGGUCAGATT against Aptx | inactive: 0.136 |
| GGAAGUGUAUAAUUUCCUGTT against Aco2 | inactive: 0.684 |
| GGAACCACACAUGUGUUAATT against Grik2 | inactive: -0.281 |
| GCUAAUAUAGAGUAUCUGUTT against Enox1 | inactive: -0.345 |
| GGGACUUCGCUAUGCAGUGTT against Tyw1 | inactive: 0.157 |
| GGAUGAUAAAGACAAAGUATT against Ppm1g | inactive: -0.921 |
| GGGAUGGGAUAGGGACAUATT against Epha10 | inactive: 0.831 |
| CGAACUGUUGAGAGACAAGTT against Trpv4 | inactive: -0.537 |
| CGAUUAGAGGCACGUCAGUTT against Neurod1 | inactive: -0.561 |
| GCAGUGGAUGUAUUGUAAATT against 0610009B22Rik | inactive: -0.377 |
| CGGUAUCAUAGCUUAGCACTT against Rab5a | inactive: 1.31 |
| GGAUGAGGAUUUUGAUUGGTT against Spsb3 | inactive: 0.641 |
| CCACCAUUUACUGAGUUUATT against Scn2b | inactive: -0.324 |

Quoted from the listing.
z-score, GGAACAUGUAUCCCAAAGCTT against Cysrt1 reads inactive: 0.666
z-score, GGAUGAGGAUUUUGAUUGGTT against Spsb3 reads inactive: 0.641

Carrying on:

| Sequence | z-score |
| --- | --- |
| GGAAGAAAAGACAAAUCUGTT against Cinp | inactive: 0.741 |
| GGUUGUGCAGGGAAACUUATT against Ap3m2 | inactive: -0.468 |
| GGUCAGAAAAGUAUGUUGGTT against Naip5 | inactive: 0.208 |
| GGCAGUAGAACAGAUCAGATT against Sf1 | inactive: -0.0346 |
| GCACUUAGACUAUUCCAGGTT against Tph2 | inactive: -0.118 |
| GCUAUUGUUAUAGUAUCUGTT against Olfr688 | inactive: -0.413 |
| GCACAAAUACACCAAUCUCTT against Eif2b5 | inactive: 0.776 |
| CGACAACAUUCGGAGAGGATT against Tspan15 | inactive: 0.193 |
| CCAUUCAGUCGAUUACAUUTT against Chd9 | inactive: 0.204 |
| GGUGGAACUGACACAAGAATT against Gk2 | inactive: 0.348 |
| GCUCUGAUGGAACGCAUGATT against Sesn2 | inactive: -0.289 |
| GGAGGAAGUUACAGAUGUGTT against Nog | inactive: -0.588 |
| GGAUGACAGUUGAAUCGCCTT against Selenom | inactive: -1.72 |
| GGAUUGUUGAAAGAAACAUTT against Mrpl32 | inactive: -0.122 |
| CCAUUCUCUUUACCUCAAUTT against Rdh12 | inactive: -0.161 |
| GCUGAACAAACCCACCGGUTT against Ppox | inactive: 0.505 |
| GGAAUCUUCCACAAGCUGUTT against Papolb | inactive: 0.722 |
| GUCCUUCUCAUCAUGGGACTT against Sec61g | inactive: -0.248 |
| CCAAAUCUCUCAAUUUAGGTT against Taf9b | inactive: 0.265 |
| GGCUGGAGAAAAUGAUGAATT against Rwdd1 | inactive: -0.267 |
| GGUGUGCCCUAUGAAUCGATT against Itpr2 | inactive: -0.657 |
| GGAAGAGAUGAAGAAAAUGTT against Cetn1 | inactive: -1.01 |

| Sequence | z-score |
| --- | --- |
| GGCAAAACCUACAUGGCCCTT against Drd1 | inactive: 0.566 |
| GCCAGUACUCUGCUUGUGATT against Naif1 | inactive: -1.64 |
| GCCCUCUUAGGAGUGAUUATT against Zfp219 | inactive: 0.54 |
| GCUGGUAUCAUGAUUUUGGTT against Gm5134 | inactive: 0.391 |
| GGUUGAAUAUACUUAGCACTT against Gm5082 | inactive: 0.947 |
| CCAAGGGUCACCUAUUUUUTT against Kcna5 | inactive: 1.97 |
| CAAGACUAUUUGGCCUGAGTT against Gbx1 | inactive: 1.71 |
| GGUGGGAAAGGAAUUUGACTT against Glod5 | inactive: 0.706 |
| GGAAGAUUAAAGGACAGUATT against Yipf3 | inactive: 0.0998 |
| GGUCUCCCUCUUCCAUAACTT against Klk10 | inactive: -1.7 |
| GGGAGAGUCUUGGCAACUUTT against Btbd17 | active: -2.12 |
| GGAUUUCUGGGACUCCACUTT against Tnfsf10 | inactive: -1.26 |
| GGACAAAUUGUAUGGCGAATT against Hecw2 | inactive: -0.402 |
| GGAGUUCCUCACACUAAUCTT against Gch1 | inactive: 0.172 |
| GGACAACUCCAAUUCCCUATT against Rasgrp2 | inactive: -1.53 |
| GCCAAGAUGUGGCAACCCATT against Mmp2 | inactive: -1.61 |
| GCCAAGAGCAUAUCUUAGUTT against Rcan1 | inactive: 1.09 |
| GGAAAUGAGCCAGGAUGGUTT against Cdca4 | inactive: 0.0601 |
| GGUGUUUCCAAUUAGGAAATT against Gjb1 | inactive: -0.209 |
| GGUAAUGUGCAACACUGUGTT against Zfp13 | inactive: -0.514 |
| GAGACACUUGUGCUGUAGGTT against F730035P03Rik | inactive: 0.108 |
| GGAGAACUUCUGGAGCACCTT against Clec4n | inactive: -0.569 |

| Sequence | z-score |
| --- | --- |
| GGUAUCUCCUGUGAACGACTT against Chmp7 | inactive: 0.0471 |
| GCUUUUCCGACAGGACCUGTT against Rptor | inactive: -0.404 |
| GGAGAAAAUAGAGACUCAATT against Scg2 | inactive: -0.605 |
| GGUUAGUAGUCUUCUUAUCTT against Olfr1173 | inactive: 0.291 |
| GGUUCUAUUACAAGAAAGGTT against Enpp6 | inactive: -0.738 |
| GGAAUCUGCACCAUUUUCCTT against Lrrc28 | inactive: -0.225 |
| CGGCAGGACAAAUCUAGAUTT against Rab44 | inactive: 0.408 |
| GGCUGUUGAGAUCCCAGAGTT against Abhd11 | inactive: -1.17 |
| CCUAUAGCUUGGUAACAGGTT against Gnb1l | inactive: -0.747 |
| GGCAAAAGGGACAAAAACUTT against Gadd45a | inactive: -1.64 |
| GGACAACUAUGGGACAGAGTT against LOC626846 | inactive: 0.77 |
| GGGUUUAUGUUGCCGACUCTT against Setd7 | active: 2.04 |
| GCGCAGAUACCUGUUUGUUTT against Tmem70 | inactive: 1.52 |
| GGGAACCAGAAUUCACAAATT against Trp53inp2 | inactive: -1.99 |
| GGACUCUCUGAAUAACAACTT against Mapk8ip2 | inactive: -0.0013 |
| GGAUUUUAAACAAAAGACCTT against Stard13 | inactive: 0.718 |
| GCACUAUGUGGAGAGAUUGTT against Esrrb | inactive: 1.61 |
| GGAAUUCAUGAAGACUUGGTT against Calb1 | inactive: 1.2 |
| GGAGGUACCAGCAGAAAGUTT against Bpnt2 | inactive: -0.651 |

Part of the list above, as comma-separated lines:
Sequence,z-score
GGUUCUAUUACAAGAAAGGTT against Enpp6,inactive: -0.738
GGAAUCUGCACCAUUUUCCTT against Lrrc28,inactive: -0.225
CGGCAGGACAAAUCUAGAUTT against Rab44,inactive: 0.408
GGCUGUUGAGAUCCCAGAGTT against Abhd11,inactive: -1.17
CCUAUAGCUUGGUAACAGGTT against Gnb1l,inactive: -0.747
